No constants are given. Whether binding was seen depends on the method and setting. Binding seen in cells or lysates may run through a third protein. Some results given as binding are weak or reduced against the parent protein; the word gives no strength. Sequences can lack the tags named with a protein.
T1: GFP-tagged CCDC92 (mouse) (UniProt Q8VDN4)
T1 sequence: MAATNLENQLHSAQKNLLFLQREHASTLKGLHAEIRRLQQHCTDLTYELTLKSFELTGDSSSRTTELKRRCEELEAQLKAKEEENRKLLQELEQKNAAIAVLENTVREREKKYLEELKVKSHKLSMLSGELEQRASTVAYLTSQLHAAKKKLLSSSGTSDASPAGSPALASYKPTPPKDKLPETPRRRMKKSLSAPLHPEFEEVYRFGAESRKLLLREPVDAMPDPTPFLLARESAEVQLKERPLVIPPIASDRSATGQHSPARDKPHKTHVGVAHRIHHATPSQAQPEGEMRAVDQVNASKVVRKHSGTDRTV

By UniProt entry, the sequences of proteins in these tests, tags left out.
UniProt Q5DU05: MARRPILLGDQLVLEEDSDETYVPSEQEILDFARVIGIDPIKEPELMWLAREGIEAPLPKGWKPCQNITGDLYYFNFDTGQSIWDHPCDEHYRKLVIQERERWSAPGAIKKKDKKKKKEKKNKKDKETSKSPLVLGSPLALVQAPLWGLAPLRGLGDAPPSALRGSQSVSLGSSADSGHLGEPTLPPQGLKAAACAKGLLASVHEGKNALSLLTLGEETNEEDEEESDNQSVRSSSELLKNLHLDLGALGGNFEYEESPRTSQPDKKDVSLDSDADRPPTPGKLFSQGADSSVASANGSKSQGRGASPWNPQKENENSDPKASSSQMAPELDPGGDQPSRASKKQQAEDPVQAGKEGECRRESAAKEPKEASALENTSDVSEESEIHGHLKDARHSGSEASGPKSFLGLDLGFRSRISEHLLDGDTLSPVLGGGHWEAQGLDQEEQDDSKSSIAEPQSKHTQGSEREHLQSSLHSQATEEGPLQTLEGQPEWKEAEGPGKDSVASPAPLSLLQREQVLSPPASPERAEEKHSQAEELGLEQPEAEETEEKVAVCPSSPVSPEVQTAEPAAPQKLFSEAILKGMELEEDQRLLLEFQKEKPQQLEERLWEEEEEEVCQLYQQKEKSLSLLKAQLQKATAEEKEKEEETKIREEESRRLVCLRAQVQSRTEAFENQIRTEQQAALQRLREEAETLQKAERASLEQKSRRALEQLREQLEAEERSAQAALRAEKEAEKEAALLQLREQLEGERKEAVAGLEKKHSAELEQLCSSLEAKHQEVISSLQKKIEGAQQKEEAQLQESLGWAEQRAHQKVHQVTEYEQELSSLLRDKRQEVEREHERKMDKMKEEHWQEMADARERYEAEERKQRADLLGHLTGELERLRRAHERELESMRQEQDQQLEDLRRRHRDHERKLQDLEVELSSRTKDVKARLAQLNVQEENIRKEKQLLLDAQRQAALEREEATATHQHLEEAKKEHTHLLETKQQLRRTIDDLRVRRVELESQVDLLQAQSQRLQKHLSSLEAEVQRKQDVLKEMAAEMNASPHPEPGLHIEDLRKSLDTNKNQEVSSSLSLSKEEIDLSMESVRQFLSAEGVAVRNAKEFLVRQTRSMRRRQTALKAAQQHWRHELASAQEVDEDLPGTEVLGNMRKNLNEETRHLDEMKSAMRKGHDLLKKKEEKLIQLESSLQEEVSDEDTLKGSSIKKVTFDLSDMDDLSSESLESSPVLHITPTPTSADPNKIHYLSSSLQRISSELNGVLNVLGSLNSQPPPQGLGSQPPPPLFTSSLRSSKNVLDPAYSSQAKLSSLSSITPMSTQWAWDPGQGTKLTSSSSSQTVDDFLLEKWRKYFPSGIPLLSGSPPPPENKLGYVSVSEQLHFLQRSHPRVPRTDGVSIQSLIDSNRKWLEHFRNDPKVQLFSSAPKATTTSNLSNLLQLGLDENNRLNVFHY


How the values were obtained:
[1] = biological target: T1, GFP-tagged CCDC92 (mouse); experiment: co-IP; GFP-CCDC92 and mouse testis lysates, GFP-Trap agarose beads, blots with IFT74, IFT81, CEP164 and GFP antibodies
[2] = biological target: T1, GFP-tagged CCDC92 (mouse); experiment: co-IP; GFP-tagged CCDC92 (whole, fragments, HCR deletions) exogenously expressed in HEK293T cells, GFP-Trap agarose beads, blots with IFT74, IFT81, CEP164 and GFP antibodies

binding [1]	binding [2]	Molecule
binds	–	CEP164 (endogenous, mouse testis) (from UniProt Q5DU05 1-1446)
binds	–	IFT81 (endogenous, mouse testis) (protein, UniProt O35594 1-676) MSDQIKFIVDSLNKEPFKKNYNLITFDSLGPMQLLQVLNDVLAEIDPKQDVDIREEMPEQTAKRMLNLLGILKYKPPGNATDMSTFRQGLVIGSKPVIYPVLHWLLQRSNELKKRAYLARFLIKLEVPSEFLQDETVADTNKQYEELMEAFKTLHKECEQLKTSGFSTAEIRRDISAMEEEKDQLMKRVERLKKRVETVQNHQRMLKIARQLRVEKEREEFLAQQKQEQKNQLFHAVQRLQRVQNQLKSMRHAAADAKPESLMKRLEEEIKFNSYMVTEKFPKELESKKKELHFLQKVVSEPAMGHSDLLELETKVNEVNTEINQLIEKKMMRNEPIEGKLSLYRQQASIISRKKEAKAEELQETKEKLASLEREVLVKTNQTREFDGTEVLKGDEFKRYVSKLRSKSTVFKKKHQIIAEFKAEFGLLQRTEELLKQRQETIQHQLRTIEEKKGISGYSYTQEELERVSALKSEVDEMKGRTLDDMSEMVKKLNSLVSEKKSALAPVIKELRQLRQKCQELTQECDEKKAQYDSCAAGLESNRSKLEQEVRGLREECLQEESKYHYTNCMIKNLEVELRRATDEMKAYVSSDQQEKRKAIREQYTKNITEQENLGKKLREKQKAVRESHGPNMKQAKMWRDLEQLMECKKQCFLKQQSPASIGQVIQEGGEDRLVL
–	binds	IFT81 (endogenous, HEK293T) (protein, UniProt Q8WYA0 1-676) MSDQIKFIMDSLNKEPFRKNYNLITFDSLEPMQLLQVLSDVLAEIDPKQLVDIREEMPEQTAKRMLSLLGILKYKPSGNATDMSTFRQGLVIGSKPVIYPVLHWLLQRTNELKKRAYLARFLIKLEVPSEFLQDETVADTNKQYEELMEAFKTLHKEYEQLKISGFSTAEIRKDISAMEEEKDQLIKRVEHLKKRVETAQNHQWMLKIARQLRVEKEREEYLAQQKQEQKNQLFHAVQRLQRVQNQLKSMRQAAADAKPESLMKRLEEEIKFNLYMVTEKFPKELENKKKELHFLQKVVSEPAMGHSDLLELESKINEINTEINQLIEKKMMRNEPIEGKLSLYRQQASIISRKKEAKAEELQEAKEKLASLEREASVKRNQTREFDGTEVLKGDEFKRYVNKLRSKSTVFKKKHQIIAELKAEFGLLQRTEELLKQRHENIQQQLQTMEEKKGISGYSYTQEELERVSALKSEVDEMKGRTLDDMSEMVKKLYSLVSEKKSALASVIKELRQLRQKYQELTQECDEKKSQYDSCAAGLESNRSKLEQEVRRLREECLQEESRYHYTNCMIKNLEVQLRRATDEMKAYISSDQQEKRKAIREQYTKNTAEQENLGKKLREKQKVIRESHGPNMKQAKMWRDLEQLMECKKQCFLKQQSQTSIGQVIQEGGEDRLIL
